In patent publication US7335645B2, “Effectors of dipeptidyl peptidase IV for topical use” (Probiodrug AG, priority 1999, dated 2008):
At least one structure is not confirmed: it was looked up by name or label, or the drawing left a doubt.

Biological target: T1, PepT1 (Oryctolagus cuniculus, UniProt P36836)
T1 construct: expressed in transfected cells
T1 sequence (P36836 1-707): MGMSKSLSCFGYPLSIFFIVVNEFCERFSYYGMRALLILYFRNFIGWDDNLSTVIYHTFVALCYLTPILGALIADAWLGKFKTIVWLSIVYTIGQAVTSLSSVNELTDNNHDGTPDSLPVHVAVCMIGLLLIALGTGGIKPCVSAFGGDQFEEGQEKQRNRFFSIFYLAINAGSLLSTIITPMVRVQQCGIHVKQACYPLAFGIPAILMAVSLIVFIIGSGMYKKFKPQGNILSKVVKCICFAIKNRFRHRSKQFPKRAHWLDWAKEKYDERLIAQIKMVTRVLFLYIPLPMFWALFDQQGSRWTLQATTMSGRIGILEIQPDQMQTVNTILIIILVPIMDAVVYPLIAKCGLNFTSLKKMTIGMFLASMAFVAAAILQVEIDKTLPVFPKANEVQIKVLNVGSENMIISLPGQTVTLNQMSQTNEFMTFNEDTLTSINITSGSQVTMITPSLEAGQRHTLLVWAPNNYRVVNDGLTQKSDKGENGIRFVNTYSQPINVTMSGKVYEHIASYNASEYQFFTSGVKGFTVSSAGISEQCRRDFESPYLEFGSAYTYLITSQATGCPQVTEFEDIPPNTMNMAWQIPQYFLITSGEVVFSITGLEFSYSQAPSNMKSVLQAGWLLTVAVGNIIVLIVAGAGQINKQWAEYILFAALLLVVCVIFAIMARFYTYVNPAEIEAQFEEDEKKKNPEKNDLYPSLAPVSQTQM
Experiment: Inhibition of 3H-D-Phe-Ala binding to PepT1-expressing P. pastoris cells
Details: read-out: EC50: effective concentration inhibiting the binding of 3H-D-Phe-Ala to PepT1-expressing P. pastoris cells by 50%
Procedure: Side chain-modified glutamylthiazolidines having a structure H-Glu(X)-Thia were synthesized, with polyethylene glycol or glycine oligomers of various chain lengths being used as X (see Method A for description of synthesis). The binding characteristics of those derivatives and their transportability by the peptide transporter PepT1 were investigated and the Ki values with respect to DP IV were determined (Table 1).

Question: With `N[C@@H](CCC(=O)NCC(=O)NCC(=O)NCC(=O)NCC(=O)NCC(=O)O)C(=O)N1CCSC1` [H-Glu(Gly5)-Thia] as the compound, how does the EC50 read?
Answer: Its EC50 is > 10 mM.
